Tested on: gene expression (mRNA) in peripheral blood (lymphocytes)
Test: Gene expression profiling (Affymetrix DNA microarrays) of blood samples of psoriatic patients before and after oral ASM981
Assay type: in vivo, human
Conditions: of the list of modulated genes
Protocol: The dose used was 60 mg/day, given as 30 mg twice a day (b.i.d.). To make this dose the […] tablets were cut in half using a special cutter (Tablettenteiler NR.96) so as to obtain 30 mg of ASM981 or a matched amount of placebo.
ASM981 was evaluated as treatment for psoriasis using an oral dose of 60 mg (30 mg b.i.d) during a 4 weeks clinical study. The oral formulation used was a highly standardized oral dosage form that could be produced in large amounts and with a highly uniform composition, this was oral formulation A.
The cohort included 10 patients; 8 received oral formulation A and 2 received a placebo. Blood samples were collected before the first administration to establish the gene expression baseline and on days 13 or 14 after treatment with ASM981 or placebo and submitted to gene expression analysis in order to gain insights into the mechanisms of action of the compound.
The RNA from each of the blood samples was extracted and tested on individual DNA microarrays, thus allowing, for each patient, a comparison of gene expression before and after ASM981 treatment. […] Genes that were consistently modulated, i.e., change greater then a factor of two, were sorted in functional categories. […]
The data were analyzed comparing, for each individual patient, the gene expression levels before and after treatment. […]

CC[C@@H]1/C=C(\C)C[C@H](C)C[C@H](OC)[C@H]2O[C@@](O)(C(=O)C(=O)N3CCCC[C@H]3C(=O)O[C@H](/C(C)=C/[C@@H]3CC[C@H](Cl)[C@H](OC)C3)[C@H](C)[C@@H](O)CC1=O)[C@H](C)C[C@@H]2OC [ASM981, 33-Epichloro-33-desoxy-ascomycin]
share of down-regulated genes: 88%

Source: US20050181516A1, “Bioequivalence determination using expression profiling” (priority 2002, published 2005)
